{"source": "the supplement of paper PMC7858590", "note": "Values joined by “and” are separate entries in the source; they are usually repeats but may differ in a detail not shown here. Equal entries are not always repeated. ± gives the standard deviation of the averaged measurements. In all, about 3,800 compounds were measured (“cell shape (eccentricity) Z-score vs DMSO control”: median about 1.1, lowest 2% from about -4.7 on). The list shows a part of the results.", "data": [{"system": "human monocyte-derived macrophages (M0)", "test": "cell shape (eccentricity) Z-score vs DMSO control; higher = more elongated, M2-like morphology", "conditions": "20 µM; 24 h; macrophage state: M0 (M-CSF)", "description": "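Primary human monocyte-derived macrophages (M-CSF differentiated, pooled from 4 donors, 5000 cells/well in 384-well plates) were treated with each compound at 20 uM for 24 h, then fixed and stained with phalloidin/DAPI and imaged on an Opera Phenix (6 fields, about 1000 cells/well). Cell eccentricity was measured with CellProfiler, and a Z-score (t-test) was computed against 4 DMSO control wells in the same row. Negative values mean round (M1-like) cells and positive values mean elongated (M2-like) cells; the paper's hit cutoffs are Z <= -4 (M1) and Z >= 6 (M2). Scale: negative = round, M1-like.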", "values": [{"smiles": "CC(=O)OCC(CCn1cnc2cnc(N)nc21)COC(C)=O", "cell shape (Z-score)": 0.62}, {"smiles": "COc1cc(/C=C/C(=O)NCC(O)c2ccc(O)cc2)ccc1O", "note": "(configuration not stated)", "cell shape (Z-score)": 2.75}, {"smiles": "CS(=O)(=O)CCNCc1ccc(-c2ccc3ncnc(Nc4ccc(OCc5cccc(F)c5)c(Cl)c4)c3c2)o1", "cell shape (Z-score)": "-2.55 and -1.02"}, {"smiles": "C/C=C1\\C(OC2OC(CO)C(O)C(O)C2O)OC=C(C(=O)OC)C1CC(=O)OCC1C(C)C(OC(=O)CC2C(C(=O)OC)=COC(OC3OC(CO)C(O)C(O)C3O)/C2=C\\C)CC1C(CO)CO", "note": "(configuration not stated)", "cell shape (Z-score)": -0.44}, {"smiles": "C[C@]12CCC[C@](C)(C(=O)O)C1CCC13C=C(CO)C(CCC12)C3", "note": "(some centres not stated)", "cell shape (Z-score)": -0.163}, {"smiles": "CC(=O)O[C@H]1CC[C@H](C)[C@@]2(C)[C@H](OC(C)=O)c3c(C)coc3C(=O)[C@H]12", "cell shape (Z-score)": 0.188}, {"smiles": "O=C(O)CCc1nc(-c2ccccc2)c(-c2ccccc2)o1", "cell shape (Z-score)": -1.06}, {"smiles": "N=C(N)NC(=O)c1nc(Cl)c(N2CCCCCC2)nc1N", "cell shape (Z-score)": 0.678}, {"smiles": "CC(=O)O[C@@H]1[C@@H](OC(C)=O)[C@H](C)O[C@@H](O[C@H]2[C@@H]3C=CO[C@@H](O[C@@H]4O[C@H](CO)[C@@H](O)[C@H](O)[C@H]4O)[C@@H]3[C@@]3(CO)O[C@@H]23)[C@@H]1OC(=O)/C=C/c1ccccc1", "cell shape (Z-score)": 0.176}, {"smiles": "CC1OC(c2cc3oc(-c4ccccc4)cc(=O)c3c(O)c2O)CC(O)C1O", "note": "(configuration not stated)", "cell shape (Z-score)": "1.38 ± 1.7"}, {"smiles": "COc1ccc(-c2ccc(=N)n(CCCC(=O)O)n2)cc1", "cell shape (Z-score)": -0.738}, {"smiles": "CC1=CC2C(CC1=O)C(C)=CCC2C(C)C", "note": "(configuration not stated)", "cell shape (Z-score)": 1.58}, {"smiles": "CC(C)[C@H](N)C(=O)OCCOCn1cnc2c(=O)[nH]c(N)nc21", "cell shape (Z-score)": 1.02}, {"smiles": "COCC1OC(OC(C)(C)C2CCC3(C)C(O2)C(O)CC2(C)/C(=C4\\CCC(O)C(C)(CCC(O)C(C)(C)O)C4)CCC23)C(NC(C)=O)C(O)C1O", "note": "(configuration not stated)", "cell shape (Z-score)": -0.527}, {"smiles": "COc1cc([C@H]2Oc3cc([C@H]4Oc5cc(O)cc(O)c5C(=O)[C@@H]4O)ccc3O[C@@H]2CO)ccc1O", "cell shape (Z-score)": 1.6}, {"smiles": "COc1cc(C2OCC3C(c4cc(OC)c(OC)c(OC)c4)OCC23)cc(OC)c1OC", "note": "(configuration not stated)", "cell shape (Z-score)": 0.312}, {"smiles": "CCC1(c2ncc[nH]2)Cc2ccccc2O1", "note": "(configuration not stated)", "cell shape (Z-score)": 1.92}, {"smiles": "CCC(NC(C)C)C(O)c1ccc(O)c2[nH]c(=O)ccc12", "note": "(configuration not stated)", "cell shape (Z-score)": 1.41}, {"smiles": "O=C(OC1C(OC(=O)c2cccnc2)C(OC(=O)c2cccnc2)C(OC(=O)c2cccnc2)C(OC(=O)c2cccnc2)C1OC(=O)c1cccnc1)c1cccnc1", "note": "(configuration not stated)", "cell shape (Z-score)": -1.67}, {"smiles": "CC1(CO)C=Cc2c(cc(O)c3c(=O)c(-c4ccc(O)cc4)coc23)O1", "note": "(configuration not stated)", "cell shape (Z-score)": 0.41}, {"smiles": "CCOC(=O)c1cnc2oc3ccc(O)cc3c2c1-c1ccccc1", "cell shape (Z-score)": -0.437}, {"smiles": "CC1(CO)CC(O)CC2(C)C3=C(CCC12)C(=O)OC3", "note": "(configuration not stated)", "cell shape (Z-score)": -1.57}, {"smiles": "COC(=O)C1[C@H]2C[C@H]3c4[nH]c5ccccc5c4CCN3C[C@@H]2CC[C@@H]1O", "note": "(some centres not stated)", "cell shape (Z-score)": -1.35}, {"smiles": "Cn1c(Nc2ccc(C(F)(F)F)cc2)nc2cc(Oc3ccnc(-c4ncc(C(F)(F)F)[nH]4)c3)ccc21", "cell shape (Z-score)": 9.98}, {"smiles": "CN(CC[C@@H](Oc1ccc(-c2ccccc2)cc1)c1ccc(F)cc1)CC(=O)O", "cell shape (Z-score)": 1.21}, {"smiles": "COCCn1c2c([n+](Cc3cnccn3)c1C)C(=O)c1ccccc1C2=O", "cell shape (Z-score)": 1.6}, {"smiles": "O=C(O)c1ccccc1S", "cell shape (Z-score)": -0.83}, {"smiles": "O=C(O)CC/C=C\\CC[C@@H]1[C@@H](N2CCCCC2)[C@@H](O)C[C@@H]1OCc1ccc(-c2ccccc2)cc1", "cell shape (Z-score)": 2.7}, {"smiles": "Fc1ccc(C2CCNCC2COc2ccc3c(c2)OCO3)cc1", "note": "(configuration not stated)", "cell shape (Z-score)": -0.128}, {"smiles": "COc1ccc(/C=C/C(=O)O[C@@H]2[C@@H](OC(=O)/C=C/c3ccc(OC)cc3)[C@H](C)O[C@@H](O[C@H]3[C@@H]4C=CO[C@@H](O[C@@H]5O[C@H](CO)[C@@H](O)[C@H](O)[C@H]5O)[C@@H]4[C@@]4(CO)O[C@@H]34)[C@@H]2OC(C)=O)cc1", "cell shape (Z-score)": 1.82}, {"smiles": "c1coc(CNc2ncnc3[nH]cnc23)c1", "cell shape (Z-score)": -0.974}, {"smiles": "CC(C)(C)c1ccc(C(O)CCCN2CCC(C(O)(c3ccccc3)c3ccccc3)CC2)cc1", "note": "(configuration not stated)", "cell shape (Z-score)": -0.389}, {"smiles": "CCC(C)C(O)C(C)(O)/C=C/C1=CC2=C(Cl)C(=O)C(C)(O)C(OC(C)=O)C2CO1", "note": "(configuration not stated)", "cell shape (Z-score)": 2.13}, {"smiles": "CC1(C)C[C@H](O)C[C@@]2(C)[C@H]1[C@H](O)C=C1COC(=O)[C@@]12O", "cell shape (Z-score)": -2.46}, {"smiles": "CCN(CC)CCOc1ccc(/C(=C(\\Cl)c2ccccc2)c2ccccc2)cc1", "cell shape (Z-score)": -3.67}, {"smiles": "CC(=O)O[C@]1(C(C)=O)CCC2C3C=C(C)C4=CC(=O)CCC4(C)C3CCC21C", "note": "(some centres not stated)", "cell shape (Z-score)": 2.1}, {"smiles": "COC(=O)c1cccc2nc3c(C(C)O)cccc3nc12", "note": "(configuration not stated)", "cell shape (Z-score)": -4.26}, {"smiles": "CSc1nc2cc(Cl)c(Oc3cccc(Cl)c3Cl)cc2[nH]1", "cell shape (Z-score)": -0.744}, {"smiles": "O=C(CCNNC(=O)c1ccncc1)NCc1ccccc1", "cell shape (Z-score)": 0.908}, {"smiles": "C=C1C(=O)O[C@@H]2C[C@@]3(C)[C@@H](O)C[C@@H](O)C(=C)[C@@H]3C[C@H]12", "cell shape (Z-score)": -1.62}, {"smiles": "Nc1ccc(S(=O)(=O)Nc2ccccn2)cc1", "cell shape (Z-score)": 1.68}, {"smiles": "CC1=C[C@H](O)[C@H]2C(C)(C)CCC[C@]2(C)[C@@]1(O)CO", "cell shape (Z-score)": 0.301}, {"smiles": "CCCn1c(=O)c(C)cn2nc(N)nc12", "cell shape (Z-score)": 3.53}, {"smiles": "NS(=O)(=O)c1cc2c(cc1Cl)NCNS2(=O)=O", "cell shape (Z-score)": 3.53}, {"smiles": "O=C1c2cccc(O)c2C(=O)c2c(O)cccc21", "cell shape (Z-score)": 3.05}, {"smiles": "CCCCCCC/C=C/C(=O)CCc1ccc(O)c(OC)c1", "cell shape (Z-score)": -2.26}, {"smiles": "O=c1cc(-c2ccc(O[C@@H]3O[C@H](CO)[C@@H](O)[C@H](O)[C@H]3O)cc2)oc2cc(O)cc(O)c12", "cell shape (Z-score)": 4.17}, {"smiles": "Cc1cc(O)c2c(c1)C(=O)c1cc(OC3OC(COC(=O)CC(=O)O)C(O)C(O)C3O)cc(O)c1C2=O", "note": "(configuration not stated)", "cell shape (Z-score)": 4.04}, {"smiles": "CC(C)OC(=O)C(C)(C)Oc1ccc(C(=O)c2ccc(Cl)cc2)cc1", "cell shape (Z-score)": 0.0442}, {"smiles": "CC(C)(Sc1ccc(CCN(CCCCC2CCCCC2)C(=O)NC2CCCCC2)cc1)C(=O)O", "cell shape (Z-score)": -1}, {"smiles": "C[C@H](CO)N1C[C@H](C)[C@H](CN(C)Cc2ccc3c(c2)OCCO3)OCc2cn(nn2)CCCC1=O", "cell shape (Z-score)": 4.71}, {"smiles": "COc1ccc([C@H]2COc3c(ccc(O)c3OC)C2)c(OC)c1O", "cell shape (Z-score)": 3.03}, {"smiles": "CC1CC(=O)C2=C(CCC34OC23C(=O)c2cccc(O)c2C4O)C1", "note": "(configuration not stated)", "cell shape (Z-score)": 1.22}, {"smiles": "CCc1cccc2c3c([nH]c12)C(CC)(CC(=O)O)OCC3", "note": "(configuration not stated)", "cell shape (Z-score)": 1.36}, {"smiles": "O=C(O)c1ccccc1-c1c2cc(I)c(=O)c(I)c-2oc2c(I)c(O)c(I)cc12", "cell shape (Z-score)": 0.806}, {"smiles": "Clc1ccccc1CNCC1CCC(CNCc2ccccc2Cl)CC1", "note": "(configuration not stated)", "cell shape (Z-score)": 1.02}, {"smiles": "O=C(CN1CCN(Cc2ccc3c(c2)OCO3)CC1)N1c2ccccc2Sc2ccccc21", "cell shape (Z-score)": -1.37}]}]}
